# From PubChem BioAssay (NCATS)
# Protein sequences, listed by entry. Tags and fused reporters are not part of them. Lines headed by an entry give the natural chain unless they say otherwise; changes in a name come on top.
# UniProt Q9BV86: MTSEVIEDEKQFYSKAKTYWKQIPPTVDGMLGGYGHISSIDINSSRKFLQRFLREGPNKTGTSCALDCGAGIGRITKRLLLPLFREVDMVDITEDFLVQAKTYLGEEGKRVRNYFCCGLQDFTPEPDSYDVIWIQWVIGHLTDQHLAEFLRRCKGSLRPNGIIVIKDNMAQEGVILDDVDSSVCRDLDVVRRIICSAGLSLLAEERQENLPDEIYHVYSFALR
# Inconclusive means that the source gave no clear call. Such entries were picked first, then a sample of the others. For part of these data: Potencies of inconclusive entries are doubtful fits and often do not repeat. The source made the active and inactive calls. Calls follow the shape of the dose curve; as a rule, active = well fitted curve in the direction sought with a large enough effect; inconclusive = small, poorly fitted or top-dose-only effect, or another doubt; inactive = no such curve, though single readings can be large; an effect the other way counts as inactive or inconclusive.
# Tests used:
# [1] = qHTS of pediatric cancer cell lines to identify multiple opportunities for drug repurposing: Confirmatory screen for LAN-5 cells (AID 1347113); details: LAN-5 neuroblastoma cell viability; series mostly up to 45.9 µM; also: nearly all actives have a fitted effect of over 65% in size
# How it was run: (§1)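 Cells (500-1,000/well) in growth media were settled 5 h at 37 degrees C, then given compounds for 48 h. Viability was read as CellTiter-Glo luminescence. Primary runs used MIPE at 11 points (0.78 nM-46 µM) and NPC at 8 points (0.59 nM-46 µM); follow-ups used 11 points.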
# [2] = qHTS of pediatric cancer cell lines to identify multiple opportunities for drug repurposing: Confirmatory screen for DAOY cells (AID 1347114); details: DAOY medulloblastoma cells viability, cytotoxicity qHTS; series mostly up to 45.9 µM; also: nearly all actives have a fitted effect of over 65% in size
# How it was run: (§2)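 Viability measured as metabolically active cells via CellTiter-Glo luminescence following 48 hours of compound exposure, 11-point dilutions in confirmatory testing. 500-1,000 cells/well plated 5 hours before dosing; controls were DMSO and 2.3 µM bortezomib.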
# [3] = qHTS of pediatric cancer cell lines to identify multiple opportunities for drug repurposing: Confirmatory screen for SJ-GBM2 cells (AID 1347116); details: SJ-GBM2 glioblastoma cells, viability; series mostly up to 45.9 µM; also: nearly all actives have a fitted effect of over 60% in size
# How it was run: as §2
# [4] = qHTS of pediatric cancer cell lines to identify multiple opportunities for drug repurposing: Confirmatory screen for BT-37 cells (AID 1347117); details: BT-37 pediatric cancer cells, viability; series mostly up to 45.9 µM; also: nearly all actives have a fitted effect of over 55% in size
# How it was run: as §1
# [5] = qHTS of pediatric cancer cell lines to identify multiple opportunities for drug repurposing: Confirmatory screen for MG 63 (6-TG R) cells (AID 1347119); details: MG-63 (6-TG resistant) osteosarcoma viability; series mostly up to 45.9 µM; also: nearly all actives have a fitted effect of over 55% in size
# How it was run: as §1
# [6] = qHTS of pediatric cancer cell lines to identify multiple opportunities for drug repurposing: Confirmatory screen for control Hh wild type fibroblast cells (AID 1347121); details: viability qHTS; series mostly up to 45.9 µM; also: nearly all actives have a fitted effect of over 70% in size
# How it was run: as §1
# [7] = qHTS of pediatric cancer cell lines to identify multiple opportunities for drug repurposing: Confirmatory screen for U-2 OS cells (AID 1347122); details: U-2 OS osteosarcoma cell viability; series mostly up to 45.9 µM; also: nearly all actives have a fitted effect of over 65% in size
# How it was run: as §1
# [8] = qHTS of pediatric cancer cell lines to identify multiple opportunities for drug repurposing: Confirmatory screen for Rh41 cells (AID 1347123); details: Rh41 rhabdomyosarcoma cells, viability/cytotoxicity qHTS; series mostly up to 45.9 µM;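 also: 48 h compound exposure; nearly all actives have a fitted effect of over 60% in size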
# How it was run: as §1
# [9] = qHTS of pediatric cancer cell lines to identify multiple opportunities for drug repurposing: Confirmatory screen for RD cells (AID 1347124); details: RD rhabdomyosarcoma cell viability; activity change, negative = cytotoxic: at 45.9 µM (top of the series);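 also: cells exposed to compound for 48 h before viability readout; nearly all actives have a fitted effect of over 65% in size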
# How it was run: as §1
# [10] = qHTS of pediatric cancer cell lines to identify multiple opportunities for drug repurposing: Confirmatory screen for Rh18 cells (AID 1347125); details: Rh18 rhabdomyosarcoma cells, viability; series mostly up to 45.9 µM; also: nearly all actives have a fitted effect of over 55% in size
# How it was run: as §1
# [11] = qHTS of pediatric cancer cell lines to identify multiple opportunities for drug repurposing: Confirmatory screen for Rh30 cells (AID 1347126); details: Rh30 rhabdomyosarcoma cell viability; series mostly up to 45.9 µM; also: nearly all actives have a fitted effect of over 55% in size
# How it was run: as §1
# [12] = qHTS of pediatric cancer cell lines to identify multiple opportunities for drug repurposing: Confirmatory screen for Saos-2 cells (AID 1347127); details: Saos-2 osteosarcoma cell viability; series mostly up to 45.9 µM; also: nearly all actives have a fitted effect of over 60% in size
# How it was run: as §1
# [13] = qHTS of pediatric cancer cell lines to identify multiple opportunities for drug repurposing: Confirmatory screen for OHS-50 cells (AID 1347128); details: OHS-50 osteosarcoma cells viability; series mostly up to 45.9 µM
# How it was run: as §1
# [14] = test system: Zika virus NS2B-NS3 protease (unlinked); assay: Optimization of GU AMC qHTS for Zika virus inhibitors: Unlinked NS2B-NS3 protease assay (AID 1347151); details: recombinant ZIKV NS2B-NS3 protease, fluorogenic AMC substrate; series mostly up to 52.5 µM; also: nearly all actives have a fitted effect of over 80% in size
# How it was run: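 Fluorescence gain (340/450 nm) over 15 min at room temperature, ~20% conversion, gave percent inhibition fitted to a 4-parameter Hill equation; enzyme was unlinked NS2B-NS3 (25 nM final), pH 8.0 Tris buffer.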
# [15] = qHTS of pediatric cancer cell lines to identify multiple opportunities for drug repurposing: Confirmatory screen for NB-EBc1 cells (AID 1347115); details: NB-EBc1 neuroblastoma cells, viability (cytotoxicity); series mostly up to 45.9 µM;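 also: cells exposed to compound for 48 h before the viability read; nearly all actives have a fitted effect of over 45% in size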
# How it was run: as §1
# [16] = qHTS of pediatric cancer cell lines to identify multiple opportunities for drug repurposing: Confirmatory screen for TC32 cells (AID 1347118); details: TC32 Ewing sarcoma cells viability qHTS; series mostly up to 45.9 µM
# How it was run: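 TC32 cells, 500-1,000/well in growth medium, compound-treated 48 h at 37 °C; viability from CellTiter-Glo luminescence. Primary screen: MIPE 11-point (0.78 nM–46 µM final), NPC 8-point (0.59 nM–46 µM final); confirmatory at 11-point dilutions.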
# [17] = qHTS of pediatric cancer cell lines to identify multiple opportunities for drug repurposing: Confirmatory screen for SK-N-SH cells (AID 1347129); details: SK-N-SH neuroblastoma cell viability; series mostly up to 46.1 µM;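 also: cells exposed to compound for 48 h before viability read; nearly all actives have a fitted effect of over 60% in size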
# How it was run: as §1
# [18] = target: N-terminal Xaa-Pro-Lys N-methyltransferase 1 (Homo sapiens) (UniProt Q9BV86); assay: qHTS Assay for Inhibitors of N-terminal methyltransferase 1 (NTMT1): LOPAC validation of the NTMT1 SAHH-coupled ThioGlo3 Assay (AID 1347143); details: recombinant NTMT1, SAHH-coupled ThioGlo3 fluorescence; series mostly up to 114 µM;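 also: SAH from peptide methylation measured as thiol fluorescence via SAHH coupling and ThioGlo3; nearly all actives have a fitted effect of over 70% in size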
# How it was run: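 In this qHTS pilot against the LOPAC set, 125nM NTMT1 met compounds tested at multiple concentrations, and fluorescence was normalized to background.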
# Potency is read from the fitted curve at half-maximal effect.
SMILES,Potency [1],Potency [2],Potency [3],Potency [4],Potency [5],Potency [6],Potency [7],Potency [8],Potency [9],Potency [10],Potency [11],Potency [12],Potency [13],Potency [14],Potency [15],Potency [16],Potency [17],Potency [18]
Cn1c(CCCC(=O)O)nc2cc(N(CCCl)CCCl)ccc21,inactive,"inconclusive: 20.8 µM [cytotoxic, partial curve, poor fit]",inactive,"inconclusive: 20.8 µM [cytotoxic, single point]","inconclusive: 13.1 µM [cytotoxic, partial curve, poor fit]",inactive,"inconclusive: 36.9 µM [cytotoxic, single point]","inconclusive: 36.9 µM [cytotoxic, single point]",inactive,inactive,"inconclusive: 36.9 µM [cytotoxic, single point]","inconclusive: 32.9 µM [cytotoxic, single point]",inactive,"inconclusive: 23.8 µM [inhibitor, partial curve]",,,,
CCCCCCCCC(=O)NCc1ccc(O)c(OC)c1,inactive,,inactive,inactive,inactive,,inactive,inactive,,,,inactive,,,inactive,,,
Cn1cc(C2=C(c3cn(C4CCN(Cc5ccccn5)CC4)c4ccccc34)C(=O)NC2=O)c2ccccc21,"inconclusive: 2.93 µM [cytotoxic, full curve, poor fit]","inconclusive: 32.9 µM [cytotoxic, single point]","inconclusive: 36.9 µM [cytotoxic, single point]","inconclusive: 3.69 µM [cytotoxic, full curve, poor fit]","inconclusive: 5.22 µM [cytotoxic, partial curve, poor fit]",inactive,,"inconclusive: 36.9 µM [cytotoxic, single point]","inconclusive: 32.9 µM [cytotoxic, single point]","inconclusive: 36.9 µM [cytotoxic, single point]","inconclusive: 36.9 µM [cytotoxic, single point]","inconclusive: 36.9 µM [cytotoxic, single point]",inactive,,"inconclusive: 5.22 µM [cytotoxic, partial curve, poor fit]","inconclusive: 2.93 µM [cytotoxic, full curve, poor fit]",,
CC[C@H]1C=CC=CC[C@@H](C)[C@H](O)[C@@](C)(O)C(=O)[C@@H](C)[C@H](O)[C@@H](C)C(=O)[C@@H](C)[C@H](O)[C@@H](C)C=CC(=O)O[C@@H]2[C@@H](C)[C@H](CC1)O[C@]1(CC[C@H](C)[C@H](C[C@@H](C)O)O1)[C@H]2C,"inconclusive: 0.293 µM [cytotoxic, full curve]",active: 0.0037 µM,active: 20.8 µM,active: 0.0585 µM,,active: 0.117 µM,,"inconclusive: 5.85 µM [cytotoxic, partial curve, poor fit]",,,"inconclusive: 4.14 µM [cytotoxic, full curve]","inconclusive: 0.414 µM [cytotoxic, full curve]",,,active: 0.208 µM,,"inconclusive: 23.5 µM [cytotoxic, single point]",
C=C(C)[C@H]1Cc2c(ccc3c2O[C@@H]2COc4cc(OC)c(OC)cc4[C@@H]2C3=O)O1,active: 1.17 µM,"inconclusive: 0.117 µM [cytotoxic, full curve, poor fit]","inconclusive: 2.08 µM [cytotoxic, full curve, poor fit]",,active: 0.0329 µM,,,"inconclusive: 1.17 µM [cytotoxic, full curve, poor fit]",,"inconclusive: 0.827 µM [cytotoxic, full curve]",,"inconclusive: 1.65 µM [cytotoxic, full curve]",,"inconclusive: 16.8 µM [inhibitor, partial curve]",,,"inconclusive: 2.09 µM [cytotoxic, full curve]","inconclusive: 56.2 µM [inhibitor, partial curve]"
Cc1ccc([N+](=O)[O-])[c]2c1[O][Hg]2,active: 2.93 µM,active: 5.22 µM,active: 4.14 µM,,,active: 16.5 µM,active: 9.27 µM,,,,"inconclusive: 9.27 µM [cytotoxic, partial curve]",active: 1.04 µM,active: 2.61 µM,,,,,
CN1[C@@H]2CC[C@H]1CC(OC(=O)c1cc(Cl)cc(Cl)c1)C2 (stereo not given in full),inactive,"inconclusive: 36.9 µM [cytotoxic, single point]",inactive,"inconclusive: 20.8 µM [cytotoxic, partial curve]",,inactive,,"inconclusive: 36.9 µM [cytotoxic, single point]","inconclusive: 36.9 µM [cytotoxic, partial curve, poor fit]",,,,inactive,,,,"inconclusive: 37.2 µM [cytotoxic, single point]",
COc1cccc2c1C(=O)c1c(O)c3c(c(O)c1C2=O)C[C@@](O)(C(=O)CO)CC3OC1CC(N2CCOC(OC)C2)C(O)C(C)O1 (stereo not given in full),"inconclusive: 0.0117 µM [cytotoxic, full curve, poor fit]",,"inconclusive: 0.0737 µM [cytotoxic, full curve, poor fit]",,"inconclusive: 0.0093 µM [cytotoxic, full curve, poor fit]",,,,"inconclusive: 0.0414 µM [cytotoxic, full curve, poor fit]",,,"inconclusive: 0.0117 µM [cytotoxic, full curve, poor fit]",,,"inconclusive: 0.0093 µM [cytotoxic, full curve, poor fit]",active: 0.0059 µM,active: 0.0235 µM,
COC(=O)C1=CCCN(C)C1,"inconclusive: 2.93 µM [rising, full curve]",inactive,inactive,,inactive,,inactive,inactive,,,,"inconclusive: 0.465 µM [rising, full curve, poor fit]",,,inactive,,,
O=[N+]([O-])c1c(Cl)c(Cl)cc(Cl)c1Cl,"inconclusive: 0.0302 µM [rising, full curve, poor fit]",inactive,"inconclusive: 0.0054 µM [rising, full curve]","inconclusive: 53.7 µM [cytotoxic, single point]",,inactive,inactive,inactive,,inactive,inactive,"inconclusive: 2.69 µM [rising, partial curve]","inconclusive: 67.6 µM [cytotoxic, single point]",,"inconclusive: 0.151 µM [rising, full curve, poor fit]","inconclusive: 53.7 µM [cytotoxic, single point]",,
C[C@]12CCC(=O)C=C1CC[C@@H]1[C@@H]2CC[C@@]2(C)[C@H]1CC[C@]2(C)O,inactive,"inconclusive: 20.8 µM [cytotoxic, single point]",inactive,,"inconclusive: 10.4 µM [cytotoxic, partial curve]",inactive,"inconclusive: 36.9 µM [cytotoxic, single point]",,,,,,inactive,,inactive,"inconclusive: 32.9 µM [cytotoxic, single point]",,
CC(=Cc1csc(C)n1)[C@@H]1C[C@H]2O[C@@H]2CCC[C@H](C)[C@@H](O)[C@@H](C)C(=O)C(C)(C)[C@@H](O)CC(=O)O1,"inconclusive: 0.0066 µM [cytotoxic, full curve, poor fit]",,active: 0.104 µM,"inconclusive: 0.0261 µM [cytotoxic, full curve]",,inactive,"inconclusive: 0.0657 µM [cytotoxic, full curve]",,active: 0.0465 µM,"inconclusive: 0.0059 µM [cytotoxic, full curve, poor fit]","inconclusive: 16.5 µM [cytotoxic, partial curve]",,active: 0.0329 µM,,"inconclusive: 0.0261 µM [cytotoxic, full curve]",,"inconclusive: 0.0372 µM [cytotoxic, full curve]",
Cc1c(N)nc([C@H](CC(N)=O)NC[C@@H](N)C(N)=O)nc1C(=O)N[C@H](C(=O)N[C@@H](C)[C@H](O)[C@@H](C)C(=O)N[C@@H](C(=O)NCCc1nc(-c2nc(C(=O)NCCC[S+](C)C)cs2)cs1)[C@@H](C)O)C(O[C@H]1O[C@H](CO)[C@H](O)[C@@H](O)[C@@H]1O[C@H]1O[C@H](CO)[C@@H](O)[C@H](OC(N)=O)[C@H]1O)c1cnc[nH]1 (stereo not given in full),inactive,"inconclusive: 36.9 µM [cytotoxic, single point]",inactive,"inconclusive: 36.9 µM [cytotoxic, single point]","inconclusive: 36.9 µM [cytotoxic, single point]",inactive,,inactive,"inconclusive: 0.0026 µM [rising, full curve]","inconclusive: 36.9 µM [cytotoxic, single point]",,inactive,,,"inconclusive: 36.9 µM [cytotoxic, single point]","inconclusive: 16.5 µM [cytotoxic, partial curve, poor fit]","inconclusive: 33.2 µM [cytotoxic, single point]",

# Two compounds from above, reduced to Potency [13] and Potency [5].
SMILES	Potency [13]	Potency [5]
Cn1c(CCCC(=O)O)nc2cc(N(CCCl)CCCl)ccc21	inactive	inconclusive: 13.1 µM [cytotoxic, partial curve, poor fit]
CCCCCCCCC(=O)NCc1ccc(O)c(OC)c1		inactive
